Results deposited as PubChem BioAssay AID652259 (Drosophila RNAi Screening Center, 2013).
The screen tested about 22,000 reagents; below is an unselected part of those with a known target gene and a result. Of all reagents, 233 (1.1%) got an active call. 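Light values are raw, unnormalised plate reads; the ratio scores behind the reporter calls were not deposited.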 Unmarked entries are inactive. Reagents against one gene are numbered here. Names joined by + are all predicted targets of the reagent. The record does not give: the amount of reagent, the time to read-out, the dose of the treatment.

Assay: 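Identify new Wingless signalling regulators in fly cells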 (primary screen)
Cells: Drosophila clone 8 imaginal disc epithelial cells
Reagents: long dsRNA against Drosophila genes
Conditions: pathway stimulated by co-transfected Wingless expression plasmid
Detection: 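Dual luciferase reads per well after Wingless plasmid stimulation: reporter firefly light and Renilla control light; activity is firefly divided by Renilla, a ratio not deposited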
Reading the numbers: firefly reporter light: higher = more Wg reporter light, before normalisation; Renilla control light: higher = more transfected or surviving cells
Active means: 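a knock-down is a candidate when at least two out of four statistical tests show it departing from its plate mean; one test alone signals a weak candidate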
Calls: active = candidate regulator (raises or lowers reporter); inactive = not a candidate

Depletion of CG11663 resulted in: firefly reporter light, replicate 1 = 20660; Renilla control light, replicate 1 = 8048.
AQP showed firefly reporter light, replicate 1 = 7116; Renilla control light, replicate 1 = 2405.
For CG6724 the deposit lists firefly reporter light, replicate 1 = 2466; firefly reporter light, replicate 2 = 6644; Renilla control light, replicate 1 = 1541; Renilla control light, replicate 2 = 4388.
PIP5K59B #1 gave firefly reporter light, replicate 1 = 7349; Renilla control light, replicate 1 = 2226.
With knock-down of PIP5K59B #2, the screen gave firefly reporter light, replicate 1 = 3144; firefly reporter light, replicate 2 = 9819; Renilla control light, replicate 1 = 692; Renilla control light, replicate 2 = 2812.
Knock-down of CG30269 came out at: firefly reporter light, replicate 1 = 2980; firefly reporter light, replicate 2 = 8487; Renilla control light, replicate 1 = 1028; Renilla control light, replicate 2 = 4049.
CG16782 scored firefly reporter light, replicate 1 = 21587; Renilla control light, replicate 1 = 14145.
Ptp61F gave firefly reporter light, replicate 1 = 5381; Renilla control light, replicate 1 = 1752.
With knock-down of CG10939 #1, the record shows firefly reporter light, replicate 1 = 14149; Renilla control light, replicate 1 = 1750.
Knock-down of CG10939 #2 resulted in: firefly reporter light, replicate 1 = 3.76e5; firefly reporter light, replicate 2 = 4.49e5; Renilla control light, replicate 1 = 1.93e5; Renilla control light, replicate 2 = 1.57e5.
bel showed reporter change call, replicate 1 = Wg reporter activity raised (active); firefly reporter light, replicate 1 = 22752; Renilla control light, replicate 1 = 2192.
CG17196 gave firefly reporter light, replicate 1 = 25776; Renilla control light, replicate 1 = 19900.
Knock-down of His1:CG33816 + His1:CG33828 + His1:CG33819 + 21 more gave: firefly reporter light, replicate 1 = 24262; Renilla control light, replicate 1 = 7676.
Against Traf-like the deposit lists firefly reporter light, replicate 1 = 3121; firefly reporter light, replicate 2 = 7473; Renilla control light, replicate 1 = 1307; Renilla control light, replicate 2 = 2428.
For CG10177, the values are firefly reporter light, replicate 1 = 10300; Renilla control light, replicate 1 = 9696.
For Pmvk, the entry reads firefly reporter light, replicate 1 = 2874; firefly reporter light, replicate 2 = 7581; Renilla control light, replicate 1 = 682; Renilla control light, replicate 2 = 2629.
With knock-down of CG13840, the record shows firefly reporter light, replicate 1 = 20217; Renilla control light, replicate 1 = 12530.

Reformatted: entries from further up
{"gene": "CG30269", "dsRNA no.": 1, "firefly reporter light, replicate 1": 2980, "firefly reporter light, replicate 2": 8487, "Renilla control light, replicate 1": 1028, "Renilla control light, replicate 2": 4049}
{"gene": "CG16782", "dsRNA no.": 1, "firefly reporter light, replicate 1": 21587, "Renilla control light, replicate 1": 14145}
